From paper doi:10.1101/586461 (bioRxiv, 2019)

By UniProt entry, the sequences of proteins in these tests, tags left out. Where a name states a change or a piece, a line headed by the entry shows the natural chain unless it says otherwise.
UniProt Q8IPW2: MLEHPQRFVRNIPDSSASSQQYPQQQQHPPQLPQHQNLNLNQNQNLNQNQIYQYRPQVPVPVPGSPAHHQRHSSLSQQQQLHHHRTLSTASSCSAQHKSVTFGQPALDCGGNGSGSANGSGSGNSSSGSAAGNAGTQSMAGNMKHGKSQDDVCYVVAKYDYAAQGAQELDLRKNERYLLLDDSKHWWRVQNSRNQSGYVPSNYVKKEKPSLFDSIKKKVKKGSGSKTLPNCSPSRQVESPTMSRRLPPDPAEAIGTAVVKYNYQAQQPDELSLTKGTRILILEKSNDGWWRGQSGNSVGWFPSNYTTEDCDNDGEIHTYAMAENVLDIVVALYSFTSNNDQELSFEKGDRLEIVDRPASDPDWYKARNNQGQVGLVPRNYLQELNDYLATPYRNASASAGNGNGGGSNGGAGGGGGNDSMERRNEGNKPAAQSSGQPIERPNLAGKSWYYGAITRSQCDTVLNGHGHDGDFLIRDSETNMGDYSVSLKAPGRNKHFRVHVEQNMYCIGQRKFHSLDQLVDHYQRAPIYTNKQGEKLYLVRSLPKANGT
UniProt Q08012: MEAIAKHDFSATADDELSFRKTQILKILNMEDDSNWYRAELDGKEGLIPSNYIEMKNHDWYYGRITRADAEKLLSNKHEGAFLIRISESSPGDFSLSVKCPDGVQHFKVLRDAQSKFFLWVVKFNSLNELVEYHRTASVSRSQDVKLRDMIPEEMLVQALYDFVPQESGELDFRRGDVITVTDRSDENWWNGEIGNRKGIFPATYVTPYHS
UniProt Q7KUD2: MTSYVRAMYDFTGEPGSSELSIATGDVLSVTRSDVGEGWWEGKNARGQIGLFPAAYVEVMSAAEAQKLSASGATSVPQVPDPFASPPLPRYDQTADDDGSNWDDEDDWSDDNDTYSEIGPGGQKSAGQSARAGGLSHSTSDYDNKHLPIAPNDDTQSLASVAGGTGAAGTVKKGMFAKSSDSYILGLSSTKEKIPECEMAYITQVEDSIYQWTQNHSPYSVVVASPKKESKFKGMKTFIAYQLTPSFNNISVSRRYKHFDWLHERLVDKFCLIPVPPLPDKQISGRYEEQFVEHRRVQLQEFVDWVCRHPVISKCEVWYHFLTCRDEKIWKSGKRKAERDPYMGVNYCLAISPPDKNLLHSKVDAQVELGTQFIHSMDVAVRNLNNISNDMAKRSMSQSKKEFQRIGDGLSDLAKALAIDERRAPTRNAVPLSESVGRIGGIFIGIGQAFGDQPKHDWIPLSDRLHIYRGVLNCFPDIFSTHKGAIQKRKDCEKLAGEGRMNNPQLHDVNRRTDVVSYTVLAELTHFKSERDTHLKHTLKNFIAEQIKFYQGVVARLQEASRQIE

Target: T1, Drosophila dynamin Shibire (Shi), wild type (Drosophila) (UniProt P27619)
T1 sequence: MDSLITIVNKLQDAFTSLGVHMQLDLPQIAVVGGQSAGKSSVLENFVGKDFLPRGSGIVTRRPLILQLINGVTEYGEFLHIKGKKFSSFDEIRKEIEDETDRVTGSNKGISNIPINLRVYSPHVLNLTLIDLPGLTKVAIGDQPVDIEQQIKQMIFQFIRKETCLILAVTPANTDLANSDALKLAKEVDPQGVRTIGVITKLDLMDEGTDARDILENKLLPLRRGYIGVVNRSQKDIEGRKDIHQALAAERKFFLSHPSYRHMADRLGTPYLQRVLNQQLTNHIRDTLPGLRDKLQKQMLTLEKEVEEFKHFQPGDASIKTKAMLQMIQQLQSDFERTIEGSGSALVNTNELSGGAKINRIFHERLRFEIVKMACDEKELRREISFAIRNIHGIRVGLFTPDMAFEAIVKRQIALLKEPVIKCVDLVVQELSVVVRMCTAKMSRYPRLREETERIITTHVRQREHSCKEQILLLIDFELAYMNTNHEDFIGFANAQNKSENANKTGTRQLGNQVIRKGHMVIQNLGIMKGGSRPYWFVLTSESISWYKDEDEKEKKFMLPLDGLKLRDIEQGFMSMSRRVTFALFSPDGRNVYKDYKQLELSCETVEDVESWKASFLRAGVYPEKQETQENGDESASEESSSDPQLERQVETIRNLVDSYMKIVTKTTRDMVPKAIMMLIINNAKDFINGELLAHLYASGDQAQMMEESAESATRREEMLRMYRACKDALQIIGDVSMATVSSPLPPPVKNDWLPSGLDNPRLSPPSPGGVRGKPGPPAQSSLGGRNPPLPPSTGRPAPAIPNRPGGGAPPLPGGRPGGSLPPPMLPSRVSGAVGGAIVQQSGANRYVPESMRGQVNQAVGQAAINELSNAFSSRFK
Test: co-sedimentation

Row | binding | Substance
1 | binds | Dock-SH3.2 (the second SH3 domain of Dock) (from UniProt Q8IPW2) (domain or fragment)
2 | binds | Drk-SH3.1 (the first SH3 domain of Drk) (from UniProt Q08012) (domain or fragment)
3 | binds | Dock-SH3.3 (the third SH3 domain of Dock) (from UniProt Q8IPW2) (domain or fragment)
4 | binds | Drk-SH3.2 (the second SH3 domain of Drk) (from UniProt Q08012) (domain or fragment)
5 | binds | SH3PX1-SH3 (the SH3 domain of SH3PX1) (from UniProt Q7KUD2) (domain or fragment)

Results are given in words; binding and its absence hold for the method and conditions named. Binding calls can cover weak binding; strength is not graded here.
